# The list is a part of this screen's results and no random one: it covers a few groups of compounds. Other doses and runs of a compound may be missing. T/C: endpoint of the treated group in % of that of the vehicle group. Some doses have a count of surviving animals in place of a T/C: the source holds a T/C of zero for them, seemingly a mark for toxic or unscored doses. Some doses without a T/C left all or most animals alive at the check, yet need not have been tolerated: survival well below the control is almost never listed, so the zero probably covers shortened survival too. Counts of survivors are from the toxicity check (mostly the fifth day) where no day follows; animals may have died later. Schedule codes are those of the source, read here as Q, the interval in days (D) or hours (H), X, the number of doses. Some complexes appear as separate parts, the way the source draws them; their charges need not add up. For survival time, this PubChem deposit counts one and a half times the control or more as active, and values a quarter to a half above the control carry no call in these data; other NCI protocols may use other cut-offs. Some entries hold several experiments; the results are listed from low to high. Some entries show no survivor count and are marked so; the dose need not have been tolerated. Some T/C values are followed by the survivors on the day toxicity was checked, most often the fifth; where neither a count nor a note follows, no animal had died by that day.
# Tested on: L1210 leukemia ip in BDF1 mice, survival T/C
# Assay: NCI In Vivo Anticancer Drug Screen. Data for tumor model L1210 Leukemia (intraperitoneal) in B6D2F1 (BDF1) mice
# Settings: T/C endpoint: mean survival time, higher T/C = longer survival
# [1] = dose: 100.0 mg/kg/injection, schedule: Q01DX001 (ip), vehicle: saline
# [2] = dose: 100.0 mg/kg/injection, schedule: Q01DX009 (ip), vehicle: saline
# [3] = dose: 100.0 mg/kg/injection, schedule: Q04DX002 (ip), vehicle: saline
# [4] = dose: 200.0 mg/kg/injection, schedule: Q01DX001 (ip), vehicle: saline
# [5] = dose: 200.0 mg/kg/injection, schedule: Q01DX009 (ip), vehicle: saline
# [6] = dose: 200.0 mg/kg/injection, schedule: Q04DX002 (ip), vehicle: saline
# [7] = dose: 400.0 mg/kg/injection, schedule: Q01DX001 (ip), vehicle: saline
# [8] = dose: 400.0 mg/kg/injection, schedule: Q01DX009 (ip), vehicle: saline
# [9] = dose: 400.0 mg/kg/injection, schedule: Q04DX002 (ip), vehicle: saline
# [10] = dose: 400.0 mg/kg/injection, schedule: Q04DX003 (ip), vehicle: saline
# [11] = dose: 100.0 mg/kg/injection, schedule: Q04DX002 (ip), vehicle: saline with Tween-80
# [12] = dose: 200.0 mg/kg/injection, schedule: Q04DX002 (ip), vehicle: saline with Tween-80
# [13] = dose: 400.0 mg/kg/injection, schedule: Q04DX002 (ip), vehicle: saline with Tween-80
# [14] = dose: 50.0 mg/kg/injection, schedule: Q04DX003 (ip), vehicle: Klucel (hydroxypropylcellulose) (HPC)
# [15] = dose: 100.0 mg/kg/injection, schedule: Q04DX003 (ip), vehicle: Klucel (hydroxypropylcellulose) (HPC)
# [16] = dose: 200.0 mg/kg/injection, schedule: Q04DX003 (ip), vehicle: Klucel (hydroxypropylcellulose) (HPC)
# [17] = dose: 400.0 mg/kg/injection, schedule: Q04DX003 (ip), vehicle: Klucel (hydroxypropylcellulose) (HPC)
# [18] = dose: 75.0 mg/kg/injection, schedule: Q01DX001 (ip), vehicle: other
# [19] = dose: 9.38 mg/kg/injection, schedule: Q01DX001 (ip), vehicle: other
# [20] = dose: 18.75 mg/kg/injection, schedule: Q01DX001 (ip), vehicle: other
# [21] = dose: 37.5 mg/kg/injection, schedule: Q01DX001 (ip), vehicle: other
structure (smiles),measurement,setting,value
O=C1C(C(Cl)(Cl)Cl)OC(C(Cl)(Cl)Cl)N1C(O)C(Cl)(Cl)Cl (stereo not drawn),T/C,[1],94 % of control
same,T/C,[2],97 and 99 % of control
same,T/C,[3],100 % of control
same,T/C,"dose: 100.0 mg/kg/injection, schedule: Q04DX003 (ip), vehicle: saline",97 % of control
same,T/C,[4],97 % of control
same,T/C,[5],97 and 99 % of control
same,T/C,[6],92 % of control
same,T/C,"dose: 200.0 mg/kg/injection, schedule: Q04DX003 (ip), vehicle: saline",93 % of control
same,T/C,[7],105 % of control
same,T/C,[8],89 and 108 % of control
same,T/C,[9],103 % of control
same,T/C,[10],92 % of control
CCOP(=O)(CC)OCCBr (stereo not drawn),T/C,[11],101 % of control [survivor count not shown]
same,T/C,[12],96 % of control [survivor count not shown]
same,T/C,[13],89 % of control [survivor count not shown]
CCOP(=O)(NC=S)NC(=S)N1CC1 (stereo not drawn),T/C,"dose: 100.0 mg/kg/injection, schedule: Q01DX001 (ip), vehicle: carboxymethylcellulose (CMC)",91 % of control
same,T/C,"dose: 200.0 mg/kg/injection, schedule: Q01DX001 (ip), vehicle: carboxymethylcellulose (CMC)",96 % of control
same,survivor count,"dose: 400.0 mg/kg/injection, schedule: Q01DX001 (ip), vehicle: carboxymethylcellulose (CMC)",1 of 6
CC1(C)CN1P(=O)(Nc1ncccn1)N1CC1(C)C (stereo not drawn),T/C,"dose: 25.0 mg/kg/injection, schedule: Q04DX003 (ip), vehicle: saline",105 % of control
same,T/C,"dose: 29.0 mg/kg/injection, schedule: Q01DX009 (ip), vehicle: saline",132 % of control
same,T/C,"dose: 44.0 mg/kg/injection, schedule: Q01DX009 (ip), vehicle: saline",125 % of control
same,T/C,"dose: 50.0 mg/kg/injection, schedule: Q01DX001 (ip), vehicle: saline",126 % of control
same,T/C,"dose: 50.0 mg/kg/injection, schedule: Q04DX003 (ip), vehicle: saline",113 % of control
same,T/C,"dose: 52.0 mg/kg/injection, schedule: Q01DX009 (ip), vehicle: saline",123 % of control
same,T/C,"dose: 66.0 mg/kg/injection, schedule: Q01DX009 (ip), vehicle: saline",138 % of control
same,T/C,"dose: 75.0 mg/kg/injection, schedule: Q01DX001 (ip), vehicle: saline",126 % of control
same,T/C,"dose: 79.0 mg/kg/injection, schedule: Q01DX009 (ip), vehicle: saline",124 % of control
same,T/C,"dose: 89.0 mg/kg/injection, schedule: Q01DX001 (ip), vehicle: saline",142 % of control
same,T/C,"dose: 90.0 mg/kg/injection, schedule: Q04DX003 (ip), vehicle: saline",115 % of control
same,T/C,[2],150 % of control
same,T/C,"dose: 118.0 mg/kg/injection, schedule: Q01DX001 (ip), vehicle: saline",127 and 148 % of control
same,T/C,"dose: 118.0 mg/kg/injection, schedule: Q01DX009 (ip), vehicle: saline",131 % of control
same,T/C,"dose: 118.0 mg/kg/injection, schedule: Q04DX003 (ip), vehicle: saline",140 % of control
same,T/C,"dose: 133.0 mg/kg/injection, schedule: Q01DX001 (ip), vehicle: saline",130 % of control
same,T/C,"dose: 177.0 mg/kg/injection, schedule: Q01DX001 (ip), vehicle: saline",130 and 171 % of control
same,T/C,"dose: 177.0 mg/kg/injection, schedule: Q01DX009 (ip), vehicle: saline",149 % of control
same,T/C,"dose: 177.0 mg/kg/injection, schedule: Q04DX003 (ip), vehicle: saline",143 % of control
same,T/C,[4],125 % of control
same,T/C,[5],214 % of control
same,T/C,"dose: 266.0 mg/kg/injection, schedule: Q01DX001 (ip), vehicle: saline",140 and 204 % of control
same,T/C,"dose: 266.0 mg/kg/injection, schedule: Q01DX009 (ip), vehicle: saline",152 % of control
same,T/C,"dose: 266.0 mg/kg/injection, schedule: Q04DX003 (ip), vehicle: saline",150 % of control
same,T/C,"dose: 300.0 mg/kg/injection, schedule: Q01DX001 (ip), vehicle: saline",127 % of control
same,T/C,[7],135 and 153 % of control
same,T/C,[8],160 % of control
same,survivor count,[8],5 of 6
same,T/C,[10],192 % of control
same,T/C,"dose: 600.0 mg/kg/injection, schedule: Q01DX001 (ip), vehicle: saline",155 % of control
same,T/C,"dose: 800.0 mg/kg/injection, schedule: Q01DX001 (ip), vehicle: saline",203 % of control
CCc1c([N+](=O)[O-])c(CC)c([N+](=O)[O-])c(CC)c1[N+](=O)[O-],T/C,[11],103 % of control [survivor count not shown]
same,T/C,[12],111 % of control [survivor count not shown]
same,T/C,[13],114 % of control [survivor count not shown]
O=[N+]([O-])c1cc([N+](=O)[O-])c(OCC(O)CO)c([N+](=O)[O-])c1 (stereo not drawn),T/C,"dose: 25.0 mg/kg/injection, schedule: Q04DX003 (ip), vehicle: Klucel (hydroxypropylcellulose) (HPC)",107 % of control
same,T/C,[14],107 % of control
same,T/C,[15],97 and 107 % of control
same,survivor count,[16],6 of 6
same,survivor count,[17],6 of 6
O=P(NC(=S)Nc1ccccc1)(NC(=S)Nc1ccccc1)N(CCCl)CCCl,T/C,[15],96 % of control
same,T/C,[16],96 % of control
same,T/C,[17],93 % of control [5 of 6 alive]
CCN(CC)CCOC(=O)C(O)(c1ccccc1C)c1ccccc1C,T/C,[18],100 % of control
CCN(CC)CCOC(=O)C(O)(c1ccccc1)c1cccc(C)c1C (stereo not drawn),T/C,[19],94 % of control
same,T/C,[20],100 % of control
same,T/C,[21],104 % of control
ClCCN1Cc2ccccc2C1,T/C,"dose: 25.0 mg/kg/injection, schedule: Q04DX002 (ip), vehicle: saline",101 % of control
same,T/C,"dose: 50.0 mg/kg/injection, schedule: Q04DX002 (ip), vehicle: saline",101 % of control
same,T/C,[3],92 and 101 % of control
same,survivor count,[6],2 of 3
same,survivor count,[9],0 of 3
CCN(CC)CCOC(=O)C(O)(c1ccccc1)c1ccc(C)cc1 (stereo not drawn),T/C,[19],102 % of control
same,T/C,[20],100 % of control
same,survivor count,[21],2 of 6
same,survivor count,[18],0 of 6
same,survivor count,"dose: 150.0 mg/kg/injection, schedule: Q01DX001 (ip), vehicle: other",0 of 6
same,survivor count,"dose: 300.0 mg/kg/injection, schedule: Q01DX001 (ip), vehicle: other",0 of 6
COP1OCC(C)(C)O1 (stereo not drawn),T/C,[1],96 % of control
same,T/C,[4],94 % of control
same,T/C,[7],91 % of control
CN(CN(CN(CCl)[N+](=O)[O-])[N+](=O)[O-])[N+](=O)[O-],T/C,[14],107 % of control [survivor count not shown]
same,T/C,[15],97 % of control [survivor count not shown]
same,T/C,[16],105 % of control [survivor count not shown]
O=[N+]([O-])N=c1[nH]cc[nH]1,T/C,[15],94 % of control
same,T/C,[16],104 % of control
same,T/C,[17],104 % of control
CCCN(CCC)CCC.F[P-](F)(F)(F)(F)F,T/C,"dose: 50.0 mg/kg/injection, schedule: Q04DX003 (ip), vehicle: saline with Tween-80",98 % of control
same,T/C,"dose: 100.0 mg/kg/injection, schedule: Q04DX003 (ip), vehicle: saline with Tween-80",94 % of control
same,survivor count,"dose: 200.0 mg/kg/injection, schedule: Q04DX003 (ip), vehicle: saline with Tween-80",0 of 6
same,survivor count,"dose: 400.0 mg/kg/injection, schedule: Q04DX003 (ip), vehicle: saline with Tween-80",0 of 6

# Source: PubChem BioAssay AID248 (DTP/NCI, 2004)
